Assay results taken from patent publication US20050164361A1, “Self-assembling-peptide-based structures and processes for controlling the self-assembly of such structures” (priority 2002, published 2005).
Not every detail of the peptide structures is certain; ends, links or a residue may be inferred. Where a SMILES comes first, the peptide text is derived from it.

Assay: Rate of fibril formation (self-assembly) as a function of metal ion content
Type: physicochemical

## CC(C)C[C@H](NC(=O)[C@H](CCCCN)NC(=O)[C@H](CCC(N)=O)NC(=O)[C@H](Cc1c[nH]cn1)NC(=O)[C@H](CCC(N)=O)NC(=O)[C@@H](NC(=O)[C@H](CCC(=O)O)NC(=O)[C@@H](N)Cc1ccc(O)cc1)C(C)C)C(=O)N[C@H](C(=O)N[C@@H](Cc1ccccc1)C(=O)N[C@@H](Cc1ccccc1)C(=O)N[C@@H](C)C(=O)O)C(C)C [Aβ(10-21)H13Q] (H-YEVQHQKLVFFA-OH)
FIG. 5B
  nucleation period of self-assembly: greatly shortened so as to be almost undetected
In the absence of ZnCl2 (FIG. 5A/5B)
  rate of fibril formation / self-assembly: greater propensity toward amyloid formation even in the absence of the zinc ion
In the presence of ZnCl2 (Zn+2) (FIG. 5A/5B)
  rate of fibril formation / self-assembly: comparatively higher
